Measurements from patent US6632923.
These are yes or no findings as the source states them, for the method shown. Sequences can lack the tags named with a protein.

Target: human HDL (high density lipoprotein) (human)
Assay: affinity coelectrophoresis (ACE), 125I-LBP run through HDL-containing agarose

B1: recombinant rabbit LBP-2 clone 26 (6-His tag) (protein, not shown: small tags and cut ends)
chain: PPPPQQPQPPPEGGAARAGGPARPVSLREVVRYLGGSSGAGGRLTRGRVQGLLEEEAAARGRLERTRLGALALPRGDRPGRAPPAASARAARNKRAGEERVLEKEEEEEEEEDDEDDDDDVVSEGSEVPESDRPAGAQHHQLNGGERGPQTAKERAKEWSLCGPHPGQEEGRGPAAGSGTRQVFSMAALSKEGGSASSTTGPDSPSPVPLPPGKPALPGADGTPFGCPAGRKEKPADPVEWTVMDVVEYFTEAGFPEQATAFQEQEIDGKSLLLMQRTDVLTGLSIRLGPALKIYEHHIKVLQQGHFEDDDPEGFLG
modifications: 125I-labeled (Iodobeads) where used as the radiolabeled species in ACE assays
binding: no binding
